The list does not hold the whole screen: it gathers tests that were run many times, whatever their T/C, doses with no T/C, and many T/C values between a quarter and a half above the control. Further doses and runs are listed elsewhere. T/C is the treated group as % of the vehicle group. Some entries give survivors of the animals treated and no T/C: the source files T/C as zero there, which appears to mark a toxic dose or a test without result, not a measured value. Some survivor counts are full or nearly so, which does not show that the dose was tolerated: the source hardly ever lists a survival T/C far under the control, and the zero likely stands for such cases as well. Survivors were counted at the toxicity check, usually on the fifth day, unless a day is given; later deaths do not show. Schedule codes are those of the source, taken here to give the interval after Q, in days (D) or hours (H), and the number of doses after X. Where survival is the endpoint, this PubChem deposit counts one and a half times the control or more as active, and values a quarter to a half above the control carry no call in these data; other NCI protocols may use other cut-offs. Some entries were tested several times; the results are listed from low to high.

13 compounds from PubChem BioAssay AID238 (DTP/NCI, 2004) can be followed below.

The test has as its system CAF1 mice, leiomyosarcoma No.2 ip, survival T/C%. As to the kind of experiment: NCI In Vivo Anticancer Drug Screen. Data for tumor model Leiomyosarcoma (No. 2) (intraperitoneal) in CAF1 mice. As to conditions: T/C endpoint: mean survival time, schedule: Q01DX010 (ip), vehicle: saline, higher T/C = longer survival. The procedure: The antitumor activity of compounds was measured in mice bearing transplantable tumors. Survival or tumor size were measured and the results are expressed as the measurement made in the treated group (T) divided by the measurement made in the vehicle treated control group (C). The tumor model used in this assay is Leiomyosarcoma (No. 2) (intraperitoneal) in CAF1 mice

Turning to `COc1ccc2c(c1OC)C(=O)O[C@@H]2[C@H]1c2c(cc3c(c2OC)OCO3)CCN1C`, the survivor count (dose: 62.5 mg/kg/injection) is given as 6 of 6, the survivor count (dose: 125.0 mg/kg/injection) is on record as 6 of 6 and the survivor count (dose: 250.0 mg/kg/injection) was 5 of 6.
`CN(C)c1nc(N(C)C)nc(N(C)C)n1`: under “dose: 150.0 mg/kg/injection”, the T/C is 133 % of control.
Take `C1CN1c1nc(N2CC2)nc(N2CC2)n1`: the T/C by setting is: (dose: 0.13 mg/kg/injection) 129 % of control; (dose: 0.25 mg/kg/injection) 125 % of control. For the same compound, the survivor count (dose: 1.0 mg/kg/injection) was 6 of 6.
In the case of `O=NN(CCCl)C(=O)NCCCl`, where the note is “dose: 25.0 mg/kg/injection”, the survivor count is 6 of 6.
On to `CCCCNc1ncnc2c1cnn2C`, for which the survivor count (dose: 15.6 mg/kg/injection) is 6 of 6 and the survivor count (dose: 125.0 mg/kg/injection) is 5 of 6.
For `CCn1cnc2c(=S)nc[nH]c21`, the survivor count (dose: 125.0 mg/kg/injection) is reported as 6 of 6.
On to `CSc1ncnc2nc[nH]c12`, for which the survivor count (dose: 200.0 mg/kg/injection) is listed as 0 of 6.
As for `O=C(Nc1ccc(C2=NCCN2)cc1)c1ccc(C(=O)Nc2ccc(C3=NCCN3)cc2)c([N+](=O)[O-])c1`, the T/C is 140 % of control (dose: 6.0 mg/kg/injection); 135 % of control (dose: 8.0 mg/kg/injection); 133 and 139 % of control (dose: 12.0 mg/kg/injection); 128 % of control (dose: 18.0 mg/kg/injection). For the same compound, the survivor count (dose: 18.0 mg/kg/injection) is on record as 6 of 6.
For the compound `CN(C)/N=N/c1nc[nH]c1C(N)=O`, the T/C is 131 % of control (dose: 100.0 mg/kg/injection) and 127 % of control (dose: 200.0 mg/kg/injection).
Turning to `CC(=O)NC1=C(N2CC2)C(=O)C(NC(C)=O)=C(N2CC2)C1=O`, the T/C (dose: 125.0 micrograms/kg/injection) was 136 % of control.
As for `CC(=O)Nc1ccc2nc3ccc(NC(C)=O)cc3[n+](-c3ccccc3)c2c1`, the T/C (dose: 25.0 mg/kg/injection) was 125 % of control, the T/C (dose: 50.0 mg/kg/injection) is 129 % of control, the T/C (dose: 100.0 mg/kg/injection) was 141 % of control and the T/C (dose: 200.0 mg/kg/injection) was 129 % of control.
Regarding `CC(=O)N(C)C`, the survivor count (dose: 62.5 mg/kg/injection) is listed as 6 of 6, the survivor count (dose: 250.0 mg/kg/injection) was 6 of 6 and the survivor count (dose: 500.0 mg/kg/injection) is reported as 6 of 6.
Consider `O=C(Nc1ccc(NC2=NCCN2)cc1)c1ccc(C(=O)Nc2ccc(NC3=NCCN3)cc2)cc1`, for which the T/C was 126 and 134 % of control (dose: 4.0 mg/kg/injection); 126 % of control (dose: 8.0 mg/kg/injection); 130 % of control (dose: 16.0 mg/kg/injection).
